Results are given in words; binding and its absence hold for the method and conditions named. In cells and extracts the contact can be indirect. Some entries that bind do so weakly or less than the wild type.
B1: parkin (protein, UniProt Q9WVS6 1-464)
chain: MIVFVRFNSSYGFPVEVDSDTSILQLKEVVAKRQGVPADQLRVIFAGKELPNHLTVQNCDLEQQSIVHIVQRPRRRSHETNASGGDEPQSTSEGSIWESRSLTRVDLSSHTLPVDSVGLAVILDTDSKRDSEAARGPVKPTYNSFFIYCKGPCHKVQPGKLRVQCGTCKQATLTLAQGPSCWDDVLIPNRMSGECQSPDCPGTRAEFFFKCGAHPTSDKDTSVALNLITSNRRSIPCIACTDVRSPVLVFQCNHRHVICLDCFHLYCVTRLNDRQFVHDAQLGYSLPCVAGCPNSLIKELHHFRILGEEQYTRYQQYGAEECVLQMGGVLCPRPGCGAGLLPEQGQRKVTCEGGNGLGCGFVFCRDCKEAYHEGDCDSLLEPSGATSQAYRVDKRAAEQARWEEASKETIKKTTKPCPRCNVPIEKNGGCMHMKCPQPQCKLEWCWNCGCEWNRACMGDHWFDV

Amino acid sequences for entries named in this document (tags omitted).
UniProt P38936: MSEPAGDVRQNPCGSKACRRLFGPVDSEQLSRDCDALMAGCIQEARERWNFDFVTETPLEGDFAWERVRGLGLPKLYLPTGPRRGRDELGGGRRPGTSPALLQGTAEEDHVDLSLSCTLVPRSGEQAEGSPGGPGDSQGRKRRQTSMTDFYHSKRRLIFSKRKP
UniProt P17918: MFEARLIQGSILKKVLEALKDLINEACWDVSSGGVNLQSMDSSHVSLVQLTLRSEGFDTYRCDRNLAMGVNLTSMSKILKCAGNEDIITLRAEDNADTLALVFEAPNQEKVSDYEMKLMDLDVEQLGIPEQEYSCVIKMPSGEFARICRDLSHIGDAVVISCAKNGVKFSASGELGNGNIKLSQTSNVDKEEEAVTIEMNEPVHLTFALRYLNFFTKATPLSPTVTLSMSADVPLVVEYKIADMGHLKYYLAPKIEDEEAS

Legend:
[1] = target: T1, p21 (mouse (endogenous in lung tumor tissue)) (UniProt P39689); experiment: co-IP; lung tumor tissue lysates of WT or parkin KO mice; immunoprecipitated with anti-p21 antibody, protein A/G beads; blotted for parkin, PCNA or CDK2
T1 sequence: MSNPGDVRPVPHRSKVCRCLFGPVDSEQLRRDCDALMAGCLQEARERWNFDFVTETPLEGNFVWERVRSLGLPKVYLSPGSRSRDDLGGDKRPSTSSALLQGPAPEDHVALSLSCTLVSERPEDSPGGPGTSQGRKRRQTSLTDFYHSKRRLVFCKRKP

[2] = target: p21 (human (endogenous in A549)) (UniProt P38936); experiment: co-IP; A549 cell lysates (EBC buffer); immunoprecipitated with polyclonal anti-p21 antibody, protein A/G beads; blotted for parkin, PCNA or CDK2; cells untreated, transfected with p21 plasmid vectors or with parkin siRNA

Molecule | binding [1] | binding [2]
proliferating cell nuclear antigen (from UniProt P17918 1-261) | binds | 
B1 |  | binds

Source: paper PMC6528990
